# Experimental data reported in the supplement of paper PMC4604168 (melanoma cell lines).
# This is one part of the list. Single values are uncertain, as repeats are few or missing.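 The apoptosis fraction was the count of cleaved-PARP antibody-stained nuclei relative to all DNA-stained nuclei, imaged in 1,536-well plates. Screening doses were set so most cells survived, and baseline and induced cleaved-PARP levels vary greatly across cell lines.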
# Tests used:
# Experiment in all cases: cleaved PARP positive nuclei fraction relative to DMSO control; melanoma cells; higher = more apoptosis
# Settings in all cases: library dose: low library concentration; 72 h
# 501Mel = test system: 501Mel
# A101D = test system: A101D
# A2058 = test system: A2058
# A375 = test system: A375
# C32 = test system: C32
# CBRC008 = test system: CBRC008 (line from a melanoma biopsy)
# CBRC014 = test system: CBRC014 (line from a melanoma biopsy)
# CBRC016 = test system: CBRC016 (line from a melanoma biopsy)
# CBRC017 = test system: CBRC017 (line from a melanoma biopsy)
# CBRC013 = test system: CBRC013 (line from a melanoma biopsy)
Compound,cleaved PARP positive nuclei fraction (501Mel),cleaved PARP positive nuclei fraction (A101D),cleaved PARP positive nuclei fraction (A2058),cleaved PARP positive nuclei fraction (A375),cleaved PARP positive nuclei fraction (C32),cleaved PARP positive nuclei fraction (CBRC008),cleaved PARP positive nuclei fraction (CBRC014),cleaved PARP positive nuclei fraction (CBRC016),cleaved PARP positive nuclei fraction (CBRC017),cleaved PARP positive nuclei fraction (CBRC013)
"N.N.[Cl][Pt][Cl] [cisplatin] + CC(=O)c1c(C)c2cnc(Nc3ccc(N4CCNCC4)cn3)nc2n(C2CCCC2)c1=O [palbociclib] (first compound 1.6 µM, partner dose 0.04 µM)",95.3%,138%,108%,203%,84%,220%,95.2%,140%,91.6%,–
"COc1ccc2c(c1)CCC1C2CCC2(C)C(NCCCCCCN3C(=O)C=CC3=O)CCC12 (stereo not drawn) + Cc1cc(SCc2sc(-c3ccc(C(F)(F)F)c(F)c3)nc2C)ccc1OCC(=O)O [GW0742] (first compound 0.4 µM, partner dose 2 µM)",32.2%,107%,187%,177%,97.3%,–,108%,113%,167%,45.6%
"CC(=O)c1c(C)c2cnc(Nc3ccc(N4CCNCC4)cn3)nc2n(C2CCCC2)c1=O [palbociclib] + C[As](C)SC[C@H](NC(=O)CC[C@H](N)C(=O)O)C(=O)NCC(=O)O [Darinaparsin] (first compound 0.04 µM, partner dose 0.4 µM)",285%,54.2%,117%,257%,114%,59.5%,104%,89.9%,121%,–
"C/C(O)=C(\C#N)C(=O)Nc1cc(Br)ccc1Br + CCCCCCCCCCCC1=C(O)C(=O)C=C(O)C1=O [Embelin] (first compound 2 µM, partner dose 1.2 µM)",61.4%,54%,61.3%,134%,143%,–,124%,33.7%,68.5%,129%
"Cc1ccc(Nc2nccc(N(C)c3ccc4c(C)n(C)nc4c3)n2)cc1S(N)(=O)=O [Pazopanib] + Cn1cc(C2=C(c3cn(C4CCN(Cc5ccccn5)CC4)c4ccccc34)C(=O)NC2=O)c2ccccc21 [Enzastaurin] (first compound 0.4 µM, partner dose 0.8 µM)",79%,104%,51.5%,40%,81.1%,79%,95.9%,214%,113%,–
"Cc1cc(SCc2sc(-c3ccc(C(F)(F)F)c(F)c3)nc2C)ccc1OCC(=O)O + C/C(O)=C(\C#N)C(=O)Nc1cc(Br)ccc1Br [LFM-A13] (first compound 2 µM, partner dose 2 µM)",69.6%,113%,49.4%,67.8%,91.3%,–,82.2%,92.7%,79.8%,136%
"C[C@]12O[C@H](C[C@]1(O)CO)n1c3ccccc3c3c4c(c5c6ccccc6n2c5c31)CNC4=O [Lestaurtinib] + Cc1cc(Nc2cc(N3CCN(C)CC3)nc(/C=C/c3ccccc3)n2)n[nH]1 [ENMD2076] (first compound 0.004 µM, partner dose 0.04 µM)",74.6%,44.6%,85%,89.8%,144%,122%,89.9%,28.2%,120%,–
"Cn1cc(C2=C(c3cn(C4CCN(Cc5ccccn5)CC4)c4ccccc34)C(=O)NC2=O)c2ccccc21 [Enzastaurin] + CCCCCCCCc1ccc(CCC(N)(CO)CO)cc1 [fingolimod] (first compound 0.8 µM, partner dose 2 µM)",170%,54.1%,98.3%,164%,33.1%,102%,104%,72.4%,121%,–
"N.N.[Cl][Pt][Cl] [cisplatin] + Nc1ccn([C@@H]2O[C@H](CO)[C@@H](O)C2(F)F)c(=O)n1 [gemcitabine] (first compound 1.6 µM, partner dose 0.0004 µM)",80.8%,46.1%,72.6%,37.7%,71.5%,122%,246%,248%,116%,–
"CC[C@]1(O)C[C@H]2CN(CCc3c([nH]c4ccccc34)[C@@](C(=O)OC)(c3cc4c(cc3OC)N(C=O)[C@H]3[C@@](O)(C(=O)OC)[C@H](OC(C)=O)[C@]5(CC)C=CCN6CC[C@]43[C@@H]65)C2)C1 [vincristine] + C[C@]12O[C@H](C[C@]1(O)CO)n1c3ccccc3c3c4c(c5c6ccccc6n2c5c31)CNC4=O [Lestaurtinib] (first compound 0.0001 µM, partner dose 0.004 µM)",98.6%,314%,263%,106%,83.2%,144%,82.5%,79.9%,93.5%,–
"Cn1cc(C2=C(c3cn(C4CCN(Cc5ccccn5)CC4)c4ccccc34)C(=O)NC2=O)c2ccccc21 [Enzastaurin] + Clc1ccc(Nc2nnc(Cc3ccncc3)c3ccccc23)cc1 [vatalanib] (first compound 0.8 µM, partner dose 2 µM)",58.1%,195%,100%,72%,147%,178%,95.4%,72.9%,201%,–
"C[C@]12O[C@H](C[C@]1(O)CO)n1c3ccccc3c3c4c(c5c6ccccc6n2c5c31)CNC4=O [Lestaurtinib] + CN(c1ncccc1CNc1nc(Nc2ccc3c(c2)CC(=O)N3)ncc1C(F)(F)F)S(C)(=O)=O [PF562271] (first compound 0.004 µM, partner dose 0.08 µM)",92.7%,46.1%,153%,75.1%,107%,71.6%,94.1%,96.7%,103%,–
"C[C@]12O[C@H](C[C@]1(O)CO)n1c3ccccc3c3c4c(c5c6ccccc6n2c5c31)CNC4=O [Lestaurtinib] + Cn1c(=O)n(-c2ccc(C(C)(C)C#N)cc2)c2c3cc(-c4cnc5ccccc5c4)ccc3ncc21 [NVP-BEZ235] (first compound 0.004 µM, partner dose 0.004 µM)",56.8%,94.6%,97.7%,301%,163%,59%,101%,72.6%,98.9%,–
"Cn1cnc2c(F)c(Nc3ccc(Br)cc3Cl)c(C(=O)NOCCO)cc21 [selumetinib] + C[As](C)SC[C@H](NC(=O)CC[C@H](N)C(=O)O)C(=O)NCC(=O)O [Darinaparsin] (first compound 0.015 µM, partner dose 0.4 µM)",6320%,150%,115%,52.6%,26%,263%,185%,235%,178%,–
"N.N.[Cl][Pt][Cl] [cisplatin] + CS(=O)(=O)CCNCc1ccc(-c2ccc3ncnc(Nc4ccc(OCc5cccc(F)c5)c(Cl)c4)c3c2)o1 [lapatinib] (first compound 1.6 µM, partner dose 0.8 µM)",59.4%,41.1%,91.4%,33%,71.7%,96.6%,112%,97%,96%,–
"N.N.[Cl][Pt][Cl] [cisplatin] + C[As](C)SC[C@H](NC(=O)CC[C@H](N)C(=O)O)C(=O)NCC(=O)O [Darinaparsin] (first compound 1.6 µM, partner dose 0.4 µM)",223%,89.8%,132%,195%,66.3%,141%,134%,218%,124%,–
"CNC(=O)c1cc(Oc2ccc(NC(=O)Nc3ccc(Cl)c(C(F)(F)F)c3)cc2)ccn1 [sorafenib] + C[As](C)SC[C@H](NC(=O)CC[C@H](N)C(=O)O)C(=O)NCC(=O)O [Darinaparsin] (first compound 0.4 µM, partner dose 0.4 µM)",204%,97.4%,123%,108%,176%,106%,89.4%,84.6%,127%,–
"Cn1cc(C2=C(c3cn(C4CCN(Cc5ccccn5)CC4)c4ccccc34)C(=O)NC2=O)c2ccccc21 [Enzastaurin] + CS(=O)(=O)CCNCc1ccc(-c2ccc3ncnc(Nc4ccc(OCc5cccc(F)c5)c(Cl)c4)c3c2)o1 [lapatinib] (first compound 0.8 µM, partner dose 0.8 µM)",66.6%,220%,141%,149%,65.5%,212%,122%,48.9%,178%,–
"NC(=O)c1ccc(N(C(N)=O)c2c(F)cccc2F)nc1-c1ccc(F)cc1F + C[C@]12O[C@H](C[C@]1(O)CO)n1c3ccccc3c3c4c(c5c6ccccc6n2c5c31)CNC4=O [Lestaurtinib] (first compound 0.4 µM, partner dose 0.004 µM)",118%,93%,164%,128%,157%,65.3%,92.6%,51.5%,106%,–
"C[C@]12O[C@H](C[C@]1(O)CO)n1c3ccccc3c3c4c(c5c6ccccc6n2c5c31)CNC4=O [Lestaurtinib] + O=C(O)c1ccc2c(c1)nc(Nc1cccc(Cl)c1)c1ccncc12 [CX4945] (first compound 0.004 µM, partner dose 0.4 µM)",66.5%,99.1%,127%,51.3%,76.6%,98.6%,107%,140%,116%,–
"C[C@]12O[C@H](C[C@]1(O)CO)n1c3ccccc3c3c4c(c5c6ccccc6n2c5c31)CNC4=O [Lestaurtinib] + CNC(=O)c1cc(Oc2ccc(NC(=O)Nc3ccc(Cl)c(C(F)(F)F)c3)cc2)ccn1 [sorafenib] (first compound 0.004 µM, partner dose 0.4 µM)",65%,208%,123%,77.5%,165%,110%,88.6%,196%,136%,–
"Cn1cc(C2=C(c3cn(C4CCN(Cc5ccccn5)CC4)c4ccccc34)C(=O)NC2=O)c2ccccc21 [Enzastaurin] + Nc1ncn([C@H]2C[C@H](O)[C@@H](CO)O2)c(=O)n1 [decitabine] (first compound 0.8 µM, partner dose 0.1 µM)",64.6%,142%,154%,180%,65.2%,118%,92.6%,147%,105%,–

# A different layout for some results above.
Compound	cleaved PARP positive nuclei fraction (501Mel)	cleaved PARP positive nuclei fraction (A101D)	cleaved PARP positive nuclei fraction (A2058)	cleaved PARP positive nuclei fraction (A375)	cleaved PARP positive nuclei fraction (C32)	cleaved PARP positive nuclei fraction (CBRC008)	cleaved PARP positive nuclei fraction (CBRC014)	cleaved PARP positive nuclei fraction (CBRC016)	cleaved PARP positive nuclei fraction (CBRC017)	cleaved PARP positive nuclei fraction (CBRC013)
CC(=O)c1c(C)c2cnc(Nc3ccc(N4CCNCC4)cn3)nc2n(C2CCCC2)c1=O [palbociclib] + C[As](C)SC[C@H](NC(=O)CC[C@H](N)C(=O)O)C(=O)NCC(=O)O [Darinaparsin] (first compound 0.04 µM, partner dose 0.4 µM)	285%	54.2%	117%	257%	114%	59.5%	104%	89.9%	121%	–
C/C(O)=C(\C#N)C(=O)Nc1cc(Br)ccc1Br + CCCCCCCCCCCC1=C(O)C(=O)C=C(O)C1=O [Embelin] (first compound 2 µM, partner dose 1.2 µM)	61.4%	54%	61.3%	134%	143%	–	124%	33.7%	68.5%	129%
